These results are taken from publication PMC7819943, “Rice protein-binding microarrays: a tool to detect cis-acting elements near promoter regions in rice”.

Chains of the proteins cited; added tags and fusions are not shown.
UniProt Q0JBA9, entry or part of it: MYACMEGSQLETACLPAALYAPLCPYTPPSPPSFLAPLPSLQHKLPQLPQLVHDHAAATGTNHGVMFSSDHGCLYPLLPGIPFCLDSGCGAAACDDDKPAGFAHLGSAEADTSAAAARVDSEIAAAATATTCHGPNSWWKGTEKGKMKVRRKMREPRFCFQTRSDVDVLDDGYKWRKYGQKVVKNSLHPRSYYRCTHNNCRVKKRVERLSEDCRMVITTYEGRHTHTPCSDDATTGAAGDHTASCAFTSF

The list shows a part of the results.

In the test the target is OsWRKY34 (Oryza sativa, UniProt Q0JBA9 1-250). The test is described as follows: protein-binding microarray (RPBM); PBS, 2% BSA, 51.3 ng/ul salmon testes DNA, 50 uM zinc acetate, 200 nM TF, 25 C, 1 h; high values mean tight binding. The conditions noted are these: protein: recombinant; tags: N-terminal polyhistidine and DsRed monomer fusion (pET32a); label: CyDye5-dUTP incorporated in the synthesized complementary strand; 3' TTTTT single-stranded linker to array surface; dsDNA, one strand shown. The gist of the method: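 Binding signal here means per-feature fluorescence intensity in arbitrary units. The values were read on an Axon 4000B scanner after a custom Agilent array, double-stranded by primer extension with Cy5-dUTP, was incubated with 200 nM protein at 25 °C for 1 h in PBS with 2% BSA, salmon testes DNA and 50 µM zinc acetate, then washed. The proteins were transcription factors with an N-terminal polyhistidine tag and DsRed, expressed in E. coli BL21-CodonPlus and purified on Ni–NTA.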
On to “TTTCCGTTTGCACTTTGCAGCCAGCACAGCCGACGGCGATCGGAGTCACCTAGTGCAG”, for which the binding signal was 8980 fluorescence intensity (a.u.).

In the case of “ATACATCTTCCCAAAACTTTTTTAATTTTTTTCAAAACTACGGAGTCACCTAGTGCAG”, the binding signal was 9280 fluorescence intensity (a.u.).

For the sequence “GATTTGGGTAATTTATATAGATGCAATCCACTGTTTGATTCGGAGTCACCTAGTGCAG”, the binding signal was 8560 fluorescence intensity (a.u.).

Take “TCCACTTTCTTTAGCCGGTCAAGGGGTTCAAGCAGCATCTCGGAGTCACCTAGTGCAG”: the binding signal was 8880 fluorescence intensity (a.u.).

Turning to “CCGCTATCTCCCGCTATAGCTGTTTGGGAAGGGTTCTAGCCGGAGTCACCTAGTGCAG”, the binding signal was 8110 fluorescence intensity (a.u.).

As for “TCCTTCAGTGACACAGTTTCCATATATCCCCATCATGCAACGGAGTCACCTAGTGCAG”, the binding signal was 9550 fluorescence intensity (a.u.).

With “CCCACCACCACCACCCAACCCCACCGCGCGCGCGCTCTCCCGGAGTCACCTAGTGCAG”, the binding signal is 8380 fluorescence intensity (a.u.).

As to “ACTTTTTCCGAACCAAAATGGACTTCTTCCTTACGGTTACCGGAGTCACCTAGTGCAG”, the binding signal is 8390 fluorescence intensity (a.u.).

For the sequence “AGCCACACTTCGCCACCGTTTCTTTTTTTTCAAACGTGACCGGAGTCACCTAGTGCAG”, the binding signal was 10800 fluorescence intensity (a.u.).

Consider “TAAAAATCGTTTCAGTTGCTGGTGCTTTATCAAAGTTTTTCGGAGTCACCTAGTGCAG”, for which the binding signal is 12000 fluorescence intensity (a.u.).

Take “ACCAATTGTTTTTTGTATTGATTATGTTATTGACTGATACCGGAGTCACCTAGTGCAG”: the binding signal was 9430 fluorescence intensity (a.u.).

For “GATATGTAGCTCGCTGTTCTTCTCTCTCTTCATTTATCTGCGGAGTCACCTAGTGCAG”, the binding signal was 10900 fluorescence intensity (a.u.).

With “CAACCCTGACGTCACGTAAGCTTTTGCCAATTCCGCCAACCGGAGTCACCTAGTGCAG”, the binding signal was 8110 fluorescence intensity (a.u.).

Turning to “CGCCGTCGTTCGTCCAGCTGCTTCCGCCGCATCCATCCTGCGGAGTCACCTAGTGCAG”, the binding signal was 10500 fluorescence intensity (a.u.).

As to “GATGGAGATATTGTGTGCGTAAAGGATGCGGAGTTGATTTCGGAGTCACCTAGTGCAG”, the binding signal was 8110 fluorescence intensity (a.u.).

For “CCTGGGCTGCCTGTTCATCATCACGCGTTTGATGTTCACTCGGAGTCACCTAGTGCAG”, the binding signal was 9370 fluorescence intensity (a.u.).

For “CAGCCACCTCCTCCTCTTCTTCCCCAACTTTCTGCTTGATCGGAGTCACCTAGTGCAG”, the binding signal is 9300 fluorescence intensity (a.u.).

With “AGCCACCTCCCACCACGCCTTGGCCTTTCCATTACCTACGCGGAGTCACCTAGTGCAG”, the binding signal is 10200 fluorescence intensity (a.u.).

Regarding “ACTCCGTTTTTCGTAAATACTGTTTAGGGTTGGGAACTGGCGGAGTCACCTAGTGCAG”, the binding signal was 8170 fluorescence intensity (a.u.).

With “TCCATTCCTTCTGGCATTGGCAACATTCTTCCCCAGATCACGGAGTCACCTAGTGCAG”, the binding signal was 8530 fluorescence intensity (a.u.).

Turning to “AATATAATGAAATTTCACAGAGGAGGGACTGGGCTTTATACGGAGTCACCTAGTGCAG”, the binding signal is 9910 fluorescence intensity (a.u.).

In the case of “TTCCCCATCCCCAGCTGCACCGACGCCACCGCCTGTATGTCGGAGTCACCTAGTGCAG”, the binding signal was 9360 fluorescence intensity (a.u.).

As to “ATGTCTCCCAAGTATTTTACTCTGTTCGTCCCATTTTAAGCGGAGTCACCTAGTGCAG”, the binding signal was 10400 fluorescence intensity (a.u.).

Turning to “ACTTTCAACTTTTTTTCTAAACTCTTAACTTTCTTCAAACCGGAGTCACCTAGTGCAG”, the binding signal was 9100 fluorescence intensity (a.u.).

With “GTTTCCAGGCGGAATCTGTAATTTGTTTTGTTGTTAGTCTCGGAGTCACCTAGTGCAG”, the binding signal was 10600 fluorescence intensity (a.u.).

On to “TTACACCCCACTTACACATCACTTACATATGTAATTAATACGGAGTCACCTAGTGCAG”, for which the binding signal was 8040 fluorescence intensity (a.u.).

Take “TTACTACTGTCTGCTCCTAGGGCTGTTGTTTTTCCTTGTTCGGAGTCACCTAGTGCAG”: the binding signal was 10600 fluorescence intensity (a.u.).

Regarding “TTTTCATCGTTCATTTCCCTACAGCAAATGTTTGGCAGCCCGGAGTCACCTAGTGCAG”, the binding signal is 8060 fluorescence intensity (a.u.).

For “CATGTGTACGATTAACATCTATCTATTATATTATATAATACGGAGTCACCTAGTGCAG”, the binding signal is 8860 fluorescence intensity (a.u.).

In the case of “AGCGCTACTCCACATCTGTTTGCTCGTGCTCTCCGGATCTCGGAGTCACCTAGTGCAG”, the binding signal is 8550 fluorescence intensity (a.u.).

For “TTTTCCTTGTTCTTATCACACGTCTTTTGACATATGGCGCCGGAGTCACCTAGTGCAG”, the binding signal was 9800 fluorescence intensity (a.u.).

As for “CATTTGTGTAGTTTATAAGAGTTGTTCGCACATGTTTAGTCGGAGTCACCTAGTGCAG”, the binding signal is 10800 fluorescence intensity (a.u.).

As to “ATTTGCTCAAACGATGACCTGATATTCTAGTTACCACTTACGGAGTCACCTAGTGCAG”, the binding signal is 8690 fluorescence intensity (a.u.).

As for “GCACTGCTTCCCTATCCAACAGTCTCTCGATTACTTCCCTCGGAGTCACCTAGTGCAG”, the binding signal was 8070 fluorescence intensity (a.u.).

Take “CCGCCTGCCACCTCCTCGCCGCCCGTCGCGTCGACGCCTGCGGAGTCACCTAGTGCAG”: the binding signal is 8440 fluorescence intensity (a.u.).

As for “CCTCGCCGTCGCCGGTCCTCGTCTCCTCCTCTATCTATATCGGAGTCACCTAGTGCAG”, the binding signal is 8600 fluorescence intensity (a.u.).

Take “TGCTGTCGATGTGCTTATCTTTCGATTTATTCCTCTCATCCGGAGTCACCTAGTGCAG”: the binding signal is 9850 fluorescence intensity (a.u.).

As for “GAATCTTAGTGGTATAATCCAGCTGTTGACTTTGTTAGGGCGGAGTCACCTAGTGCAG”, the binding signal was 12800 fluorescence intensity (a.u.).

For the sequence “CCATGGTGATGCACTCGTCACGCTCTAGCGGAAGAGATCCCGGAGTCACCTAGTGCAG”, the binding signal was 8200 fluorescence intensity (a.u.).

Consider “ATGATACTAGCGGAGCTCACTACTTACTATTAGTCAATGTCGGAGTCACCTAGTGCAG”, for which the binding signal is 8330 fluorescence intensity (a.u.).

Turning to “GCTGTTTGATCCATAATTTATCCGCGCGTCGTCACTCCGACGGAGTCACCTAGTGCAG”, the binding signal is 10200 fluorescence intensity (a.u.).

As for “TCCAGTGTTAACATCGTTTCTCCTTGGCACGCTAAGCTTTCGGAGTCACCTAGTGCAG”, the binding signal was 10100 fluorescence intensity (a.u.).
